PubChem BioAssay AID1259254 – NCATS | 2017

Purpose: 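Gene knock-downs that lead to re-replication, shown by excess G2 DNA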 (primary screen)
Cell system: human HCT116 colorectal cancer cells
Reagent: single siRNA against human genes
Time to read-out: 3 days
Measured: 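Nuclei stained with Hoechst and imaged; cell-cycle phase assigned by DNA content; G2 share scaled per plate, non-targeting siRNA 0%, GMNN siRNA 100%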
Scale: G2 robust z-score: higher = more G2 cells, more excess DNA replication
Active means: 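Active siRNAs have a G2 robust z of 5 or more median absolute deviations over the median, which in these data means about 38% or higher of GMNN control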
This is a random part of about 59,000 reagents. About 1,550 of all reagents (2.6%) count as active. 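G2 share is only a proxy for re-replication; each gene was hit by three separate siRNAs, and active genes were retested.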 Entries without a mark were called inactive. The numbers tell different reagents against one gene apart. Not all columns of the deposit are shown. No sequences are given here. Not given: the amount of reagent.

What is on record for HNRNPKP3 (heterogeneous nuclear ribonucleoprotein K pseudogene 3) #1?
G2 robust z-score: -1.16

For HNRNPKP3 (heterogeneous nuclear ribonucleoprotein K pseudogene 3) #2, what does the deposit list?
G2 robust z-score: -0.709

For HNRNPKP3 (heterogeneous nuclear ribonucleoprotein K pseudogene 3) #3, what was measured?
G2 robust z-score: 0.827

For SASH3 (SAM and SH3 domain containing 3) #1, what does the deposit list?
G2 robust z-score: -0.7

With SASH3 (SAM and SH3 domain containing 3) #2, what was measured?
G2 robust z-score: 2.01

With SASH3 (SAM and SH3 domain containing 3) #3, how do the results read?
G2 robust z-score: 0.839

What did the screen give for ACBD6 (acyl-CoA binding domain containing 6) #1?
G2 robust z-score: -0.352

With ACBD6 (acyl-CoA binding domain containing 6) #2, what was measured?
G2 robust z-score: -0.87

What is on record for ACBD6 (acyl-CoA binding domain containing 6) #3?
G2 robust z-score: -0.688

For VPS35 (VPS35 retromer complex component) #1, how do the results read?
G2 robust z-score: 2.59

What is on record for VPS35 (VPS35 retromer complex component) #2?
G2 robust z-score: 0.757

With VPS35 (VPS35 retromer complex component) #3, what was measured?
G2 robust z-score: -0.806

Which result is listed for BCL11A (BCL11 transcription factor A) #1?
G2 robust z-score: 0.243

With BCL11A (BCL11 transcription factor A) #2, what was measured?
G2 robust z-score: 2.57

What did the screen give for BCL11A (BCL11 transcription factor A) #3?
G2 robust z-score: -0.759

How did the screen score FCN2 (ficolin 2) #1?
G2 robust z-score: 1.42

What did the screen give for FCN2 (ficolin 2) #2?
G2 robust z-score: 0.604

For FCN2 (ficolin 2) #3, how do the results read?
G2 robust z-score: 1.6

Which result is listed for CTRL (chymotrypsin like) #1?
G2 robust z-score: -0.478

For CTRL (chymotrypsin like) #2, what does the deposit list?
G2 robust z-score: 0.277

What is on record for CTRL (chymotrypsin like) #3?
G2 robust z-score: -0.678

For LARP1 (La ribonucleoprotein 1, translational regulator) #1, what does the deposit list?
G2 robust z-score: 3.55

With LARP1 (La ribonucleoprotein 1, translational regulator) #2, how do the results read?
G2 robust z-score: -0.467

With LARP1 (La ribonucleoprotein 1, translational regulator) #3, what was measured?
G2 robust z-score: 0.048

As entered above.
HNRNPKP3 (heterogeneous nuclear ribonucleoprotein K pseudogene 3) #2, G2 robust z-score → -0.709
Under “G2 robust z-score”, LARP1 (La ribonucleoprotein 1, translational regulator) #1 shows 3.55
CTRL (chymotrypsin like) #1, G2 robust z-score = -0.478
